Experimental data reported in patent publication US4379148A, “Analgesic and anti-inflammatory composition” (priority 1981, dated 1983).
At least one read-out could not be matched to a standard name with certainty.

CC(C(=O)O)c1cccc(C(=O)c2ccccc2)c1 (stereo not shown) [Ketoprofen]
Arthritic score, combination with 100 mg/kg emorfazone (mean ± S.E., with 100 mg/kg emorfazone, drug mg/kg p.o.: phenylbutazone 15, ibuprofen 25, mefenamic acid 25, indomethacin 0.1, acetylsalicylic acid 100, naproxen 1, ketoprofen 2, flurbiprofen 2, * p < 0.05 vs drug alone): 3.6 ± 0.9 | inhibitory percentage of arthritic score, test drugs alone-treated (mg/kg p.o.: phenylbutazone 15, ibuprofen 25, mefenamic acid 25, indomethacin 0.1, acetylsalicylic acid 100, naproxen 1, ketoprofen 2, flurbiprofen 2): 28% | Arthritic score, test drugs alone-treated (rat, in vivo, po): 7.8 ± 1.1 | inhibitory percentage of arthritic score, combination with 100 mg/kg emorfazone (with 100 mg/kg emorfazone, drug mg/kg p.o.: phenylbutazone 15, ibuprofen 25, mefenamic acid 25, indomethacin 0.1, acetylsalicylic acid 100, naproxen 1, ketoprofen 2, flurbiprofen 2): 67%
